Values of other authors as cited in patent US5998487A, “Anti-inflammatory and antibacterial benzyl phenol agents and their use in oral compositions” (Colgate-Palmolive Company, priority 1998, dated 1999).
At least one compound was matched to its structure with a doubt left.

System: caries
Settings: hamsters; Stralfors 1967; cited from earlier work

O=c1c(O)c(-c2ccc(O)c(O)c2)oc2cc(O)cc(O)c12 [quercetin, pentahydroxyflavone]
inhibition of caries: inhibit caries
